Where two headings read alike, the source gives them in different places.
Legend:
[1] = format: in vivo, human
[2] = tested on: CYP1A2; conditions: competitive inhibition, in vitro; ref unpublished data; cited from earlier work
[3] = tested on: cytochrome P450 (CYP) 2C8 enzyme; conditions: in vitro, ref unpublished data, cited from earlier work

CNC(=O)c1ccccc1Sc1ccc2c(/C=C/c3ccccn3)n[nH]c2c1 [Axitinib, axitinib]
CL/F, Mean (%CV) ([1]; axitinib 5 mg b.i.d. + gemcitabine/cisplatin, cycle 1 day 1): 46.7 (104) l h^−1
CL/F, Mean (%CV) ([1]; axitinib + paclitaxel/carboplatin, cycle 1 day 1, dose-normalised to 5 mg b.i.d.): 37 (114) l h^−1
CL/F, Mean (%CV) ([1]; axitinib alone 5 mg b.i.d., steady state, gemcitabine/cisplatin cohort): 50.1 (113) l h^−1
CL/F, Mean (%CV) ([1]; axitinib alone, steady state, cohorts 1–3 pooled, dose-normalised to 5 mg b.i.d.): 39 (87) l h^−1
inhibitor constant, CYP1A2 [2]: 0.27 μg ml^–1
Mode of CYP2C8 inhibition [3]: noncompetitively inhibits
inhibitor constant, CYP2C8 ([3]; non-competitive inhibition): 0.19 μg ml^–1

Source: paper PMC3494447 (British Journal of Cancer, 2012)
